Measurements reported in PubChem BioAssay AID246 (DTP/NCI, 2004).
The list is a part of this screen's results and no random one: it is rich in T/C values a quarter to a half above the control, in often repeated tests (any T/C) and in doses without a T/C. Other doses and runs of a compound stand elsewhere. T/C is the treated group as % of the vehicle group. Some entries give survivors of the animals treated and no T/C: the source files T/C as zero there, which appears to mark a toxic dose or a test without result, not a measured value. Some doses without a T/C left all or most animals alive at the check, yet need not have been tolerated: the source hardly ever lists a survival T/C far under the control, and the zero likely stands for such cases as well. Counts of survivors are from the toxicity check (mostly the fifth day) where no day follows; animals may have died later. Schedules are NCI's codes, read here as Q, the interval in days (D) or hours (H), X, the number of doses. Some entries were tested several times; their values stand side by side, smallest first. Some schedule codes hold Z or #, which are not explained here. For survival time, this PubChem deposit counts one and a half times the control or more as active, and values a quarter to a half above the control carry no call in these data; other NCI protocols may use other cut-offs. Additions like (4×) count equal records among those shown. Some T/C values carry the count of animals alive at the toxicity check (mostly the fifth day); without a count, all were alive then.

Test system: BDF1 mice, P1081 chloroleukemia ip, survival T/C
Test: NCI In Vivo Anticancer Drug Screen. Data for tumor model P1081 Chloroleukemia (intraperitoneal) in B6D2F1 (BDF1) mice
Details: T/C endpoint: mean survival time, higher T/C = longer survival
Description: The antitumor activity of compounds was measured in mice bearing transplantable tumors. Survival or tumor size were measured and the results are expressed as the measurement made in the treated group (T) divided by the measurement made in the vehicle treated control group (C). The tumor model used in this assay is P1081 Chloroleukemia (intraperitoneal) in B6D2F1 (BDF1) mice

[1] = dose: 20.0 mg/kg/injection, schedule: Q01DX010 (ip), vehicle: saline
[2] = dose: 100.0 mg/kg/injection, schedule: Q01DX Z (ip), vehicle: carboxymethylcellulose (CMC)
[3] = dose: 200.0 mg/kg/injection, schedule: Q01DX Z (ip), vehicle: carboxymethylcellulose (CMC)
[4] = dose: 2.0 mg/kg/injection, schedule: Q01DX010 (ip), vehicle: saline
[5] = dose: 12.5 mg/kg/injection, schedule: Q01DX010 (ip), vehicle: saline
[6] = dose: 200.0 mg/kg/injection, schedule: Q01DX Z (ip), vehicle: water
[7] = dose: 200.0 mg/kg/injection, schedule: Q01DX Z (ip), vehicle: other
[8] = dose: 12.5 mg/kg/injection, schedule: Q01DX Z (ip), vehicle: carboxymethylcellulose (CMC)
[9] = dose: 120.0 mg/kg/injection, schedule: Q01DX010 (ip), vehicle: saline

For `O=c1[nH]c(=O)n(C2CC(O)C(CO)O2)cc1F` (stereo unspecified), the T/C [1] was 127 % of control, the T/C (dose: 25.0 mg/kg/injection, schedule: Q01DX Z (ip), vehicle: carboxymethylcellulose (CMC)) was 138 % of control and the T/C (dose: 50.0 mg/kg/injection, schedule: Q01DX Z (ip), vehicle: carboxymethylcellulose (CMC)) was 126 % of control. For the same compound, the survivor count (dose: 80.0 mg/kg/injection, schedule: Q01DX010 (ip), vehicle: saline) was 6 of 6, the T/C [2] was 143 % of control and the survivor count [3] was 6 of 6. The survivor count (dose: 400.0 mg/kg/injection, schedule: Q01DX Z (ip), vehicle: carboxymethylcellulose (CMC)) was 6 of 6.
For `CC[n+]1c(-c2ccccc2)c2cc(N)ccc2c2ccc(N)cc21`, the T/C (dose: 1.25 mg/kg/injection, schedule: Q01DX010 (ip), vehicle: saline) was 140 % of control and the T/C (dose: 10.0 mg/kg/injection, schedule: Q01DX010 (ip), vehicle: saline) was 140 and 144 % of control.
With `CCCCCCCCCCCCNCCCCCCCCCCCC` the T/C (dose: 0.95 mg/kg/injection, schedule: Q01DX Z (ip), vehicle: carboxymethylcellulose (CMC)) was 137 % of control, the survivor count (dose: 0.95 mg/kg/injection, schedule: Q01DX Z (ip), vehicle: saline) was 6 of 6 and the survivor count (dose: 7.5 mg/kg/injection, schedule: Q01DX Z (ip), vehicle: carboxymethylcellulose (CMC)) was 6 of 6. For the same compound, the survivor count (dose: 15.0 mg/kg/injection, schedule: Q01DX Z (ip), vehicle: carboxymethylcellulose (CMC)) was 5 of 6, the survivor count (dose: 30.0 mg/kg/injection, schedule: Q01DX Z (ip), vehicle: carboxymethylcellulose (CMC)) was 4 of 6 and the survivor count (dose: 60.0 mg/kg/injection, schedule: Q01DX Z (ip), vehicle: carboxymethylcellulose (CMC)) was 0 of 6.
With `Nc1nc(SCc2ccccc2)c2[nH]cnc2n1` the survivor count (dose: 37.5 mg/kg/injection, schedule: Q01DX Z (ip), vehicle: carboxymethylcellulose (CMC)) was 6 of 6 and the survivor count (dose: 75.0 mg/kg/injection, schedule: Q01DX Z (ip), vehicle: carboxymethylcellulose (CMC)) was 6 of 6.
With `O=C(Nc1ccc(C2=NCCN2)cc1)c1ccc(C(=O)Nc2ccc(C3=NCCN3)cc2)c(Cl)c1` the survivor count (dose: 3.75 mg/kg/injection, schedule: Q01DX Z (ip), vehicle: water) was 5 of 6, the T/C (dose: 15.0 mg/kg/injection, schedule: Q01DX Z (ip), vehicle: water) was 132 % of control and the survivor count (dose: 60.0 mg/kg/injection, schedule: Q01DX Z (ip), vehicle: water) was 4 of 6.
With `COc1cc2c(c(OC)c1OC)-c1ccc(N)c(=O)cc1[C@@H](NC(C)=O)CC2` the T/C [4] was 140 % of control, the survivor count (dose: 4.0 mg/kg/injection, schedule: Q01DX010 (ip), vehicle: saline) was 6 of 7 and 6 of 6 and the survivor count (dose: 8.0 mg/kg/injection, schedule: Q01DX010 (ip), vehicle: saline) was 6 of 6.
With `COS(C)(=O)=O` the T/C [5] was 125 % of control, the survivor count (dose: 100.0 mg/kg/injection, schedule: Q01DX010 (ip), vehicle: saline) was 6 of 6 and the survivor count [6] was 0 of 6.
`Nc1nc2n[nH]nc2c(=O)[nH]1` was tested, and the T/C (dose: 25.0 mg/kg/injection, schedule: Q01DX010 (ip), vehicle: alkali diluted with saline) was 130 % of control (2×), the T/C (dose: 25.0 mg/kg/injection, schedule: Q01DX Z (ip), vehicle: other) was 141 % of control and the T/C (dose: 50.0 mg/kg/injection, schedule: Q01DX010 (ip), vehicle: alkali diluted with saline) was 135 and 140 % of control. For the same compound, the T/C (dose: 100.0 mg/kg/injection, schedule: Q01DX010 (ip), vehicle: alkali diluted with saline) was 140 % of control (2×), the T/C (dose: 200.0 mg/kg/injection, schedule: Q01DX010 (ip), vehicle: alkali diluted with saline) was 145 and 145 % of control [5 of 6 alive] and the T/C [7] was 138 % of control.
For `O=P1(N(CCCl)CCCl)NCCCO1` (stereo unspecified), the T/C (dose: 12.5 mg/kg/injection, schedule: Q01DX Z (ip), vehicle: saline) was 101, 106, 121, 142 % of control, the T/C (dose: 25.0 mg/kg/injection, schedule: Q01DX Z (ip), vehicle: saline) was 124, 135, 156, 172 % of control and the T/C (dose: 45.0 mg/kg/injection, schedule: Q01DX010 (ip), vehicle: saline) was 128 % of control. For the same compound, the T/C (dose: 50.0 mg/kg/injection, schedule: Q01DX Z (ip), vehicle: saline) was 105, 115, 120, 173 % of control, the survivor count (dose: 90.0 mg/kg/injection, schedule: Q01DX010 (ip), vehicle: saline) was 6 of 6 and the survivor count (dose: 100.0 mg/kg/injection, schedule: Q01DX Z (ip), vehicle: saline) was 6 of 6. For the same compound, the survivor count (dose: 180.0 mg/kg/injection, schedule: Q01DX010 (ip), vehicle: saline) was 6 of 6 and the survivor count (dose: 200.0 mg/kg/injection, schedule: Q01DX Z (ip), vehicle: saline) was 0 of 6.
With `Cn1cnc([N+](=O)[O-])c1Sc1nc(N)nc2nc[nH]c12` the T/C (dose: 4.0 mg/kg/injection, schedule: Q01DX Z (ip), vehicle: carboxymethylcellulose (CMC)) was 140 and 142 % of control, the survivor count (dose: 16.0 mg/kg/injection, schedule: Q01DX Z (ip), vehicle: carboxymethylcellulose (CMC)) was 6 of 6 and the survivor count (dose: 32.0 mg/kg/injection, schedule: Q01DX Z (ip), vehicle: carboxymethylcellulose (CMC)) was 6 of 6.
In the case of `Cn1cnc([N+](=O)[O-])c1Sc1ncnc2nc[nH]c12`, the T/C [8] is reported as 146 % of control.
In the case of `Cn1c(N)nc2nc[nH]c2c1=S`, the T/C [1] is reported as 125 % of control.
In the case of `Cc1n[nH]c(=O)[nH]c1=O`, the survivor count (dose: 100.0 mg/kg/injection, schedule: Q01DX Z (ip), vehicle: other) is reported as 5 of 6, the survivor count [7] is reported as 5 of 6 and the survivor count (dose: 400.0 mg/kg/injection, schedule: Q01DX Z (ip), vehicle: other) is reported as 4 of 6. The survivor count (dose: 1600.0 mg/kg/injection, schedule: Q01DX Z (ip), vehicle: other) was 5 of 6.
For `CC(=O)O[C@]1(C(C)=O)CC[C@H]2[C@@H]3C[C@H](C)C4=CC(=O)C=C[C@]4(C)[C@@]3(F)[C@@H](O)C[C@@]21C`, the T/C (dose: 80.0 mg/kg/injection, schedule: Q01DX Z (sc), vehicle: steroid suspending solution) was 128 % of control.
For `C[C@@H]1C[C@@H]([C@H](O)CC2CC(=O)NC(=O)C2)C(=O)[C@@H](C)C1`, the T/C (dose: 40.0 mg/kg/injection, schedule: Q01DX010 (ip), vehicle: saline) was 130 % of control and the survivor count [6] was 0 of 6.
With `CCN(CC)C(=S)S` the survivor count (dose: 500.0 mg/kg/injection, schedule: Q01DX Z (ip), vehicle: other) was 5 of 6.
`O=C(Nc1ccc(NC2=NCCN2)cc1)c1ccc(C(=O)Nc2ccc(NC3=NCCN3)cc2)cc1` was tested, and the T/C [4] was 130 % of control, the T/C (dose: 4.0 mg/kg/injection, schedule: Q01DX Z (ip), vehicle: saline) was 132 % of control and the T/C (dose: 16.0 mg/kg/injection, schedule: Q01DX010 (ip), vehicle: saline) was 140 and 144 % of control. The survivor count (dose: 16.0 mg/kg/injection, schedule: Q01DX Z (ip), vehicle: saline) was 6 of 6, the survivor count (dose: 32.0 mg/kg/injection, schedule: Q01DX Z (ip), vehicle: saline) was 6 of 6 and the survivor count (dose: 64.0 mg/kg/injection, schedule: Q01DX Z (ip), vehicle: saline) was 6 of 6.
With `CCCNc1ncnc2[nH]ncc12` the survivor count (dose: 3.13 mg/kg/injection, schedule: Q01DX010 (ip), vehicle: saline) was 6 of 6, the survivor count (dose: 6.25 mg/kg/injection, schedule: Q01DX010 (ip), vehicle: saline) was 5 of 6 and the survivor count [5] was 6 of 6. The survivor count (dose: 25.0 mg/kg/injection, schedule: Q01DX010 (ip), vehicle: saline) was 6 of 6 and the survivor count (dose: 40.0 mg/kg/injection, schedule: Q01DX Z (ip), vehicle: water) was 6 of 6.
For `N#CCSc1ncnc2nc[nH]c12`, the T/C [8] was 140 % of control, the T/C (dose: 15.0 mg/kg/injection, schedule: Q01DX010 (ip), vehicle: saline) was 130 % of control and the T/C (dose: 60.0 mg/kg/injection, schedule: Q01DX010 (ip), vehicle: saline) was 145 % of control. The survivor count [2] was 3 of 6, the T/C [9] was 140 % of control and the survivor count [9] was 5 of 6. The survivor count [3] was 0 of 6.
